Drawing on paper PMC7846277, this text covers binding for 7 molecules.

The chains behind the UniProt entries cited, without tags or fusion partners.
UniProt P40958: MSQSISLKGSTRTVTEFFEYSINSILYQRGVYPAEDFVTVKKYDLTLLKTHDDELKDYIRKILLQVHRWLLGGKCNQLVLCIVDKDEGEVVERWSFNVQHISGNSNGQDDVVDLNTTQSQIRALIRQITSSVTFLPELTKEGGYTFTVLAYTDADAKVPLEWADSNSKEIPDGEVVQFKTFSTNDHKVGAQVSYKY

Results are given in words; binding and its absence hold for the method and conditions named. In cells and extracts the contact can be indirect. Here binding means that the protein was enriched with, or labelled near, the bait; the list need not be complete. For some assays here: A no says only that the protein was not detected with the bait. Sequences can lack the tags named with a protein.

First the molecules themselves.
T1: Dsn1–6His-3FLAG (S. cerevisiae (strain SK1)) (UniProt P40568)
T1 sequence: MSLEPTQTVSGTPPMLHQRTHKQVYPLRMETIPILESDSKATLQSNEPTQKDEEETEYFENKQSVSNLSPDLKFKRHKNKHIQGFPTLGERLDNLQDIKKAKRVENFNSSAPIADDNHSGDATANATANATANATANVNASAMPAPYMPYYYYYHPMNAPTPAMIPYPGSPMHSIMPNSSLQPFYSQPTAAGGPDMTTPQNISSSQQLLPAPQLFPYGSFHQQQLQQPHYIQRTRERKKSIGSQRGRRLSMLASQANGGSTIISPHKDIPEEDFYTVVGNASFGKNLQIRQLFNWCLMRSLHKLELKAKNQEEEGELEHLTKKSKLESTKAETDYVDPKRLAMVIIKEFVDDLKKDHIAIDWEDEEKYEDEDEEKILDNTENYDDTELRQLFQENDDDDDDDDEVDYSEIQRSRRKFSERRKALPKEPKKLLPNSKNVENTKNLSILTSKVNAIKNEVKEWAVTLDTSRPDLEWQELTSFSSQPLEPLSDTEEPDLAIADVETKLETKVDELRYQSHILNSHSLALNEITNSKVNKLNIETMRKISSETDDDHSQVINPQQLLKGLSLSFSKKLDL

B1: Bub3^BUB3 (protein, UniProt P26449 1-341)
chain: MQIVQIEQAPKDYISDIKIIPSKSLLLITSWDGSLTVYKFDIQAKNVDLLQSLRYKHPLLCCNFIDNTDLQIYVGTVQGEILKVDLIGSPSFQALTNNEANLGICRICKYGDDKLIAASWDGLIEVIDPRNYGDGVIAVKNLNSNNTKVKNKIFTMDTNSSRLIVGMNNSQVQWFRLPLCEDDNGTIEESGLKYQIRDVALLPKEQEGYACSSIDGRVAVEFFDDQGDDYNSSKRFAFRCHRLNLKDTNLAYPVNSIEFSPRHKFLYTAGSDGIISCWNLQTRKKIKNFAKFNEDSVVKIACSDNILCLATSDDTFKTNAAIDQTIELNASSIYIIFDYEN
B2: Mad1^MAD1 (protein, UniProt P40957 1-749)
chain: MDVRAALQCFFSALSGRFTGKKLGLEIYSIQYKMSNSGGSSPFLESPGGSPDVGSTNGQSNRQIQALQFKLNTLQNEYEIEKLQLQKQTNILEKKYKATIDELEKALNDTKYLYESNDKLEQELKSLKERSANSMNDKDKCIEELRTTLQNKDLEMETLRQQYDSKLSKVTNQCDHFKLEAESSHSLLMKYEKEIKRQSVDIKDLQHQVMEKDDELSSVKASKMINSHPNYSTEEFNELTEMNKMIQDQVQYTKELELANMQQANELKKLKQSQDTSTFWKLENEKLQNKLSQLHVLESQYENLQLENIDLKSKLTKWEIYNDSDDDDDNNVNNNDNNNNNKNDNNNDNNNDTSNNNNINNNNRTKNNIRNNPEEIIRDWKLTKKECLILTDMNDKLRLDNNNLKLLNDEMALERNQILDLNKNYENNIVNLKRLNHELEQQKSLSFEECRLLREQLDGLYSAQNNALLEVENSETHASNKNVNEDMNNLIDTYKNKTEDLTNELKKLNDQLLSNSNDVETQRKKRKLTSDQIGLNYSQRLNELQLENVSVSRELSKAQTTIQLLQEKLEKLTKLKEKKIRILQLRDGPFIKDQFIKKNKLLLLEKENADLLNELKKNNPAVETVPISVYDSLNFELKQFEQEVFKSNKRFSRLKQVFNNKSLEFIDVVNSLLGFKLEFQQDSRVKIFSCFKPEKYLIADLNENTLKSNLDADIEGWDDLMNLWVEDRGQLPCFLATITLRLWEQRQAK
B3: Bub1^BUB1 (protein, UniProt P41695 1-1021)
chain: MNLDLGSTVRGYESDKDTFPQSKGVSSSQKEQHSQLNQTKIAYEQRLLNDLEDMDDPLDLFLDYMIWISTSYIEVDSESGQEVLRSTMERCLIYIQDMETYRNDPRFLKIWIWYINLFLSNNFHESENTFKYMFNKGIGTKLSLFYEEFSKLLENAQFFLEAKVLLELGAENNCRPYNRLLRSLSNYEDRLREMNIVENQNSVPDSRERLKGRLIYRTAPFFIRKFLTSSLMTDDKENRANLNSNVGVGKSAPNVYQDSIVVADFKSETERLNLNSSKQPSNQRLKNGNKKTSIYADQKQSNNPVYKLINTPGRKPERIVFNFNLIYPENDEEFNTEEILAMIKGLYKVQRRGKKHTEDYTSDKNRKKRKLDVLVERRQDLPSSQPPVVPKSTRIEVFKDDDNPSQSTHHKNTQVQVQTTTSILPLKPVVDGNLAHETPVKPSLTSNASRSPTVTAFSKDAINEVFSMFNQHYSTPGALLDGDDTTTSKFNVFENFTQEFTAKNIEDLTEVKDPKQETVSQQTTSTNETNDRYERLSNSSTRPEKADYMTPIKETTETDVVPIIQTPKEQIRTEDKKSGDNTETQTQLTSTTIQSSPFLTQPEPQAEKLLQTAEHSEKSKEHYPTIIPPFTKIKNQPPVIIENPLSNNLRAKFLSEISPPLFQYNTFYNYNQELKMSSLLKKIHRVSRNENKNPIVDFKKTGDLYCIRGELGEGGYATVYLAESSQGHLRALKVEKPASVWEYYIMSQVEFRLRKSTILKSIINASALHLFLDESYLVLNYASQGTVLDLINLQREKAIDGNGIMDEYLCMFITVELMKVLEKIHEVGIIHGDLKPDNCMIRLEKPGEPLGAHYMRNGEDGWENKGIYLIDFGRSFDMTLLPPGTKFKSNWKADQQDCWEMRAGKPWSYEADYYGLAGVIHSMLFGKFIETIQLQNGRCKLKNPFKRYWKKEIWGVIFDLLLNSGQASNQALPMTEKIVEIRNLIESHLEQHAENHLRNVILSIEEELSHFQYKGKPSRRF
B4: Zip1^SYCP1 (protein, UniProt P31111 1-875)
chain: MSNFFRDSSMGFKPRPNIFAKLRVRDVDSDSSANTVVENSSNCLDVGSSIEGDDTFKKPHKTSTEQELITSMSLSQRNHGYSDDMEIGSPKKTTSTDQYNRILKNDVAAIENDTDEDFEITEVREVSEGVAKETKESHGDPNDSETTLKDSKMHEYTMTNGKAPLHTSINNSSTSSNDVLLEAFTNTQRICSNLKQELQKQQQDNAKLKVRLQSYASNSDKINEKVGKYKSCLETLQERIATLTSHKNNQETKLKDLRQNHQLYQRRISGFKTSIENLNKTINDLGKNKKEADAELMKKGKEIEYLKRELDDCSGQLSEEKIKNSSLIQEMGKNREEMIKSIENFFSEDKAHHLLQFNKFEERVHDLFEKKLQKHFDVAKDTLNVGLRNTTVELSSNTETMLKQQYEDIKENLEQKMSSSKDEMAKTINELSVTQKGLIMGVQEELLTSSGNIQTALVSEMNNTRQELLDDASQTAKNYASLENLVKAYKAEIVQSNEYEERIKHLESERSTLSSQKNQIISSLGTKEAQYEDLVKKLEAKNIEISQISGKEQSLTEKNENLSNELKKVQDQLEKLNNLNITTKSNYENKISSQNEIVKALVSENDTLKQRIQQLVEIKENEQKDHTTKLEAFQKNNEQLQKLNVEVVQLKAHELELEEQNRHLKNCLEKKETGVEESLSDVKTLKQQVIVLKSEKQDITAEKLELQDNLESLEEVTKNLQQKVQSQKRELEQKIKELEEIKNHKRNEPSKKGTQNFTKPSDSPKKNATTSNLFPNNSAAIHSPMKKCPKVDHISKSRINSSKETSKFNDEFDLSSSSNDDLELTNPSPIQIKPVRGKIKKGSNCMKPPISSRKKLLLVEDEDQSLKISKKRRRK
B5: Cdc5^Plk1 (enzyme, UniProt P32562 1-705)
chain: MSLGPLKAINDKQLNTRSKLVHTPIKGNTADLVGKENHFKQTKRLDPNNDHHHQPAQKKKREKLSALCKTPPSLIKTRGKDYHRGHFLGEGGFARCFQIKDDSGEIFAAKTVAKASIKSEKTRKKLLSEIQIHKSMSHPNIVQFIDCFEDDSNVYILLEICPNGSLMELLKRRKVLTEPEVRFFTTQICGAIKYMHSRRVIHRDLKLGNIFFDSNYNLKIGDFGLAAVLANESERKYTICGTPNYIAPEVLMGKHSGHSFEVDIWSLGVMLYALLIGKPPFQARDVNTIYERIKCRDFSFPRDKPISDEGKILIRDILSLDPIERPSLTEIMDYVWFRGTFPPSIPSTVMSEAPNFEDIPEEQSLVNFKDCMEKSLLLESMSSDKIQRQKRDYISSIKSSIDKLEEYHQNRPFLPHSLSPGGTKQKYKEVVDIEAQRRLNDLAREARIRRAQQAVLRKELIATSTNVIKSEISLRILASECHLTLNGIVEAEAQYKMGGLPKSRLPKIKHPMIVTKWVDYSNKHGFSYQLSTEDIGVLFNNGTTVLRLADAEEFWYISYDDREGWVASHYLLSEKPRELSRHLEVVDFFAKYMKANLSRVSTFGREEYHKDDVFLRRYTRYKPFVMFELSDGTFQFNFKDHHKMAISDGGKLVTYISPSHESTTYPLVEVLKYGEIPGYPESNFREKLTLIKEGLKQKSTIVTVD
B6: Kre28^Zwint (protein, UniProt Q04431 1-385)
chain: MDTGSASIKDYETVLTDIEDSIAVSSEEVLNNQELRLKNTLHEITSSILAINEENKFVNPLRNDESLDVEGKEVFVNPKILSAKIKEFNKLMELLKLTYLEQETLDYFFRFTLSSTKPLQLDSEKDPQFVKLNERVNDLKEEISNVQESKIEQIKAEIQETGHNFAERQDLINELYLEATGDIENCWDSLNELKNLTNKEDKNMMGEKDTILNSSDSDDFVEETYTNWQKLLFLQKQNQRLTKELKEMHEVKNQIIRKGEQSKKEDSGHLMANESELCQSINLLTKFWEKHFLLKGSKTTILNFEIFTQLGKVQFEIKDMQYIIAISLSDLKRPMIKDITILQKAGGNIVTDIEASSKFNNKYRNNTKVQIFEVMDDIISELTNE

One assay has as its target T1, Dsn1–6His-3FLAG (S. cerevisiae (strain SK1)). Put plainly: affinity purification with mass spectrometry; anti-FLAG (M2) immunoprecipitation of Dsn1–6His-3FLAG from lysates of cryoground yeast in H0.15 buffer (150 mM KCl, 0.1% NP-40, pH 8.0), 3 h at 4°C, elution with FLAG peptide, label-free quantitative MS; cells cycling, arrested in mitosis (benomyl), in meiotic prophase I (inducible-NDT80) or in metaphase I (pCLB2-CDC20).
With Mad2^MAD2 (from UniProt P40958 1-196), the binding result is reported as “binds”.

On to B1, for which the binding result was “binds”.

Regarding B2, the binding entry is listed as “binds”.

With B3, the binding result was “binds”.

For the molecule B4, the binding entry is on record as “binds”.

Turning to B5, the binding result is reported as “binds”.

For B6, the binding result is recorded as “binds”.

For the next assay the target is unchanged. Kind of assay: affinity purification with mass spectrometry; as a1, cells arrested in meiotic metaphase I (pCLB2-CDC20), compared with prophase I cells.
Turning to B4, the binding result is listed as “no binding (only cells arrested in metaphase I)”.
